Results on one substance are retold here after publication PMC5294785.

Sequences of proteins named here, by UniProt entry; tags and fusion partners are left off.
UniProt O95292: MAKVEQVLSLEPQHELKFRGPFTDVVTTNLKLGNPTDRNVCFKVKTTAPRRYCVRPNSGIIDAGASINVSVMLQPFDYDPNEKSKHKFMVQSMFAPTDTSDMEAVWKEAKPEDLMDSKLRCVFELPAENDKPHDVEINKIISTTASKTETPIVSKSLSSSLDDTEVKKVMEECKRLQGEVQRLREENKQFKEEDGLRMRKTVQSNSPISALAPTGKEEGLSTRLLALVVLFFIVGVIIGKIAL

No constants are given. Whether binding was seen depends on the method and setting. In cells and extracts the contact can be indirect. A yes stands for co-enrichment or nearness to the bait. Other partners may have been found. Sequences can lack the tags named with a protein.

The assay concerns the target T1, EGFP-rACBD5 (acyl-coenzyme A-binding domain protein 5) (UniProt A0FKI7).
T1 sequence: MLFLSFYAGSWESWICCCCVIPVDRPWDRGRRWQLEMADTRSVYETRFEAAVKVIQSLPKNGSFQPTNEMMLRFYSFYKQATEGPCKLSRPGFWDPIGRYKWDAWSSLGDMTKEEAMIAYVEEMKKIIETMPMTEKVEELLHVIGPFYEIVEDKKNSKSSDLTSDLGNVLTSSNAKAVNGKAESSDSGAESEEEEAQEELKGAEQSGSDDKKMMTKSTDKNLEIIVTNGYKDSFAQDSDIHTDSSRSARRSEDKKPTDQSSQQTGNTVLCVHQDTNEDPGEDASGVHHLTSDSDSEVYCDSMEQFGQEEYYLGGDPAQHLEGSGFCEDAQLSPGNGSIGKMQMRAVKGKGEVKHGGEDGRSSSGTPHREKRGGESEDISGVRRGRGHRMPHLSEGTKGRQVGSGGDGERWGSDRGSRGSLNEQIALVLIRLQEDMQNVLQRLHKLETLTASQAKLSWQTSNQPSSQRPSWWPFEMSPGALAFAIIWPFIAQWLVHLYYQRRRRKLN
Nature of the assay: affinity purification with mass spectrometry; GFP-TRAP agarose beads with lysates of HepG2 cells expressing EGFP-rACBD5 (EGFP-only vector as control), 1% NP-40, overnight at 4°C, washes with 1 M NaCl; three experiments, label-free peptide counting.

As for “vesicle-associated membrane protein-associated protein B (VAPB), endogenous (from UniProt O95292 1-243)”, the binding entry is “binds”.
